In the assay the test system is Salmonella enterica serovar Typhimurium SL1344. In words: bacterial growth OD600 after 18 h with compound and polymyxin B; higher = more bacterial growth (less inhibition). To be noted: 50 µM, Mueller-Hinton broth.

The structures appear in SMILES notation. Some of the results follow. These are raw signals, not scaled to a control.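 In the initial screen, polymyxin B was used at a concentration that permeabilizes Salmonella's outer membrane but not its inner membrane. Maximum growth was set by DMSO wells with or without polymyxin B. Since plates varied, data were ranked per plate, and compounds giving the lowest OD600 advanced as hits.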

Regarding `CCOc1ccc(CN2CCN(Cc3cccc4c3OCO4)CC2CCO)cc1` (stereo not given), the “bacterial growth OD600” value (polymyxin B 1 µg/mL) was 0.948. As to `O=C([C@@H]1C[C@@H]2C=C[C@H]1C2)N1CCc2onc(-c3ccccc3F)c2C1`, the “bacterial growth OD600” value (polymyxin B 0.75 µg/mL) came to 0.669. As for `C=CCN(CC=C)C(=O)c1cc(NC(=O)CC2CCCC2)cc2nc(C3CCCO3)n(C)c12` (stereo not given), the “bacterial growth OD600” value (polymyxin B 0.75 µg/mL) worked out at 0.85.

As for `CC1CCCN(C(=O)c2cn(Cc3ccc(Cl)cc3)nn2)C1` (stereo not given), the “bacterial growth OD600” value (polymyxin B 1 µg/mL) was 1.1. Still for that read-out and setting: as for `O=C(C[n+]1cc([O-])on1)NC1CCCc2c1cnn2-c1ccc(F)cc1F` (stereo not given), the figure is 1.08. Turning to `CCC1CN(CCC(=O)NCCCn2ncc3ccccc32)Cc2cc(OC)ccc2O1` (stereo not given), the “bacterial growth OD600” value (polymyxin B 0.75 µg/mL) is 0.743. For `COc1cccc(CCC2CCCN(C(=O)CCc3cccnc3)C2)c1` (stereo not given), the “bacterial growth OD600” value (polymyxin B 0.75 µg/mL) stood at 0.792. Consider `Cc1ccc(CN2CCN(Cc3ccccc3F)C(CCO)C2)s1` (stereo not given), for which the “bacterial growth OD600” value (polymyxin B 1 µg/mL) amounted to 1. As to `OCC1(Cc2ccccc2)CCCN(Cc2cccn2-c2ccc(Cl)cn2)C1` (stereo not given), the “bacterial growth OD600” value (polymyxin B 1 µg/mL) worked out at 0.939.

For the compound `COCC(=O)Nc1cc(C(=O)N2CCCC(c3ccccc3)CC2)cc2nc(-c3cccnc3)n(C)c12` (stereo not given), under “polymyxin B 0.75 µg/mL”, the “bacterial growth OD600” value is 0.825. As for `O=C(NCC1CCOCC1)c1ccc2oc(CCc3ccccc3)nc2c1`, the “bacterial growth OD600” value (polymyxin B 1 µg/mL) was 0.939. In the case of `COC(=O)c1c(S(=O)(=O)N2CCCC2)sc2c1CCN(C(=O)c1cc3ccccc3o1)C2`, the “bacterial growth OD600” value (polymyxin B 0.75 µg/mL) is 0.574. Regarding `COc1cccc(C(=O)N2CCCC(CCC(=O)N3CCN(Cc4ccccc4)CC3)C2)c1` (stereo not given), the “bacterial growth OD600” value (polymyxin B 1 µg/mL) came out at 0.95. The same measure, in the same setting: to `C=C(C)CNC(=O)C1CCC(=O)N(Cc2cccc(C(F)(F)F)c2)C1` (stereo not given) belongs 0.847. As for `CN(CCc1nc2cc(Cl)ccc2[nH]1)C(=O)CCC1(Cc2cccc3ccccc23)CCC(=O)N1` (stereo not given), the “bacterial growth OD600” value (polymyxin B 0.75 µg/mL) stood at 0.963.

For the compound `COc1ccccc1Oc1ncccc1CNc1cnccn1`, for the setting “polymyxin B 1 µg/mL”, the “bacterial growth OD600” value was found to be 1.02. On to `O=C(NCCN1CCOCC1)c1ccc(N2CCC(NC[C@@H]3CCCN4CCCC[C@H]34)CC2)cc1`, for which the “bacterial growth OD600” value (polymyxin B 0.75 µg/mL) was determined as 0.789. As to `CCNC(=O)C1CCCN1c1nc(C)c2ccc(S(C)(=O)=O)cc2n1` (stereo not given), the “bacterial growth OD600” value (polymyxin B 0.75 µg/mL) was 0.959. Still for that read-out and setting: to `Cc1nonc1CNC1CCN(c2ccc(C(=O)NC(C)c3ccccc3)cc2)CC1` (stereo not given) belongs 0.796.

`COc1ccc(CN2CCN(Cc3ccc4nsnc4c3)CC2CCO)c(C)c1C` (stereo not given): the “bacterial growth OD600” value (polymyxin B 1 µg/mL) was 0.97. Same read-out and setting: as for `COCCNC(=O)c1ccc(OC)cc1OC1CCN(Cc2ccc(OC)cc2F)CC1`, the figure is 0.995. Take `COc1ccc(C2(CC(=O)N3CCC(Sc4ccc(F)cc4)CC3)CC(=O)N(C3CC3)C2=O)cc1` (stereo not given): the “bacterial growth OD600” value (polymyxin B 0.75 µg/mL) stood at 0.824. On to `O=C(C1CCC(=O)N(C2CC2)C1)N1CCC(N2CCSCC2)CC1` (stereo not given), for which, for the setting “polymyxin B 1 µg/mL”, the “bacterial growth OD600” value is 1.15. Turning to `CC(C)CCC1(C2CCN(C(=O)Cc3cc(F)cc(F)c3)CC2)NC(=O)N(Cc2ccccn2)C1=O` (stereo not given), the “bacterial growth OD600” value (polymyxin B 0.75 µg/mL) amounted to 0.78. For the compound `COc1cccc(-c2n[nH]c3c2CN(C(=O)c2cc(C)nc(C)n2)CC3)c1`, where the note is “polymyxin B 0.75 µg/mL”, the “bacterial growth OD600” value turned out to be 0.799. Consider `COc1ccc(O)c(CN2CCC(C(Cc3ccccc3F)N(C)C(=O)c3ccsc3)CC2)c1` (stereo not given), for which, for the setting “polymyxin B 0.75 µg/mL”, the “bacterial growth OD600” value turned out to be 0.466.

Turning to `O=C(CC1(c2ccccc2Cl)CC(=O)N(C2CCCC2)C1=O)N1CCCCC1c1cccnc1` (stereo not given), under “polymyxin B 0.75 µg/mL”, the “bacterial growth OD600” value amounted to 0.003. As for `Cc1ccc2oc(C(=O)NC(c3cccnc3)C(F)(F)F)c(C)c2c1` (stereo not given), the “bacterial growth OD600” value (polymyxin B 1 µg/mL) was 1.14. As for `CCC(C)n1cc(C(=O)N2CCCCCC2)c(=O)c(C(=O)N2CCN(Cc3cccc(F)c3)CC2)c1` (stereo not given), where the note is “polymyxin B 0.75 µg/mL”, the “bacterial growth OD600” value worked out at 0.811.

Consider `CN(CC1CCOCC1)C(=O)c1ccc2nc(Cc3cccc(Cl)c3)oc2c1`, for which the “bacterial growth OD600” value (polymyxin B 1 µg/mL) stood at 0.82.
